Results are given in words; binding and its absence hold for the method and conditions named. Binding seen in cells or lysates may run through a third protein. Some binding calls cover weakened binding; strength is not graded here. Sequences can lack the tags named with a protein.
Biological target: hBRCA1 (human) (UniProt P38398)
Test: co-IP; Flag-hSTIL (or its deletion mutants) and hBRCA1 co-transfected, lysed after 48 h in 10 mM Tris pH 7.5, 150 mM NaCl, 0.5% Triton-X100; precipitated with anti-BRCA1 or anti-STIL antibody overnight at 4°C and protein A/G agarose beads; beads-only control; western blot with anti-BRCA1 and anti-STIL

By UniProt entry, the sequences of proteins in these tests, tags left out.
UniProt P38398: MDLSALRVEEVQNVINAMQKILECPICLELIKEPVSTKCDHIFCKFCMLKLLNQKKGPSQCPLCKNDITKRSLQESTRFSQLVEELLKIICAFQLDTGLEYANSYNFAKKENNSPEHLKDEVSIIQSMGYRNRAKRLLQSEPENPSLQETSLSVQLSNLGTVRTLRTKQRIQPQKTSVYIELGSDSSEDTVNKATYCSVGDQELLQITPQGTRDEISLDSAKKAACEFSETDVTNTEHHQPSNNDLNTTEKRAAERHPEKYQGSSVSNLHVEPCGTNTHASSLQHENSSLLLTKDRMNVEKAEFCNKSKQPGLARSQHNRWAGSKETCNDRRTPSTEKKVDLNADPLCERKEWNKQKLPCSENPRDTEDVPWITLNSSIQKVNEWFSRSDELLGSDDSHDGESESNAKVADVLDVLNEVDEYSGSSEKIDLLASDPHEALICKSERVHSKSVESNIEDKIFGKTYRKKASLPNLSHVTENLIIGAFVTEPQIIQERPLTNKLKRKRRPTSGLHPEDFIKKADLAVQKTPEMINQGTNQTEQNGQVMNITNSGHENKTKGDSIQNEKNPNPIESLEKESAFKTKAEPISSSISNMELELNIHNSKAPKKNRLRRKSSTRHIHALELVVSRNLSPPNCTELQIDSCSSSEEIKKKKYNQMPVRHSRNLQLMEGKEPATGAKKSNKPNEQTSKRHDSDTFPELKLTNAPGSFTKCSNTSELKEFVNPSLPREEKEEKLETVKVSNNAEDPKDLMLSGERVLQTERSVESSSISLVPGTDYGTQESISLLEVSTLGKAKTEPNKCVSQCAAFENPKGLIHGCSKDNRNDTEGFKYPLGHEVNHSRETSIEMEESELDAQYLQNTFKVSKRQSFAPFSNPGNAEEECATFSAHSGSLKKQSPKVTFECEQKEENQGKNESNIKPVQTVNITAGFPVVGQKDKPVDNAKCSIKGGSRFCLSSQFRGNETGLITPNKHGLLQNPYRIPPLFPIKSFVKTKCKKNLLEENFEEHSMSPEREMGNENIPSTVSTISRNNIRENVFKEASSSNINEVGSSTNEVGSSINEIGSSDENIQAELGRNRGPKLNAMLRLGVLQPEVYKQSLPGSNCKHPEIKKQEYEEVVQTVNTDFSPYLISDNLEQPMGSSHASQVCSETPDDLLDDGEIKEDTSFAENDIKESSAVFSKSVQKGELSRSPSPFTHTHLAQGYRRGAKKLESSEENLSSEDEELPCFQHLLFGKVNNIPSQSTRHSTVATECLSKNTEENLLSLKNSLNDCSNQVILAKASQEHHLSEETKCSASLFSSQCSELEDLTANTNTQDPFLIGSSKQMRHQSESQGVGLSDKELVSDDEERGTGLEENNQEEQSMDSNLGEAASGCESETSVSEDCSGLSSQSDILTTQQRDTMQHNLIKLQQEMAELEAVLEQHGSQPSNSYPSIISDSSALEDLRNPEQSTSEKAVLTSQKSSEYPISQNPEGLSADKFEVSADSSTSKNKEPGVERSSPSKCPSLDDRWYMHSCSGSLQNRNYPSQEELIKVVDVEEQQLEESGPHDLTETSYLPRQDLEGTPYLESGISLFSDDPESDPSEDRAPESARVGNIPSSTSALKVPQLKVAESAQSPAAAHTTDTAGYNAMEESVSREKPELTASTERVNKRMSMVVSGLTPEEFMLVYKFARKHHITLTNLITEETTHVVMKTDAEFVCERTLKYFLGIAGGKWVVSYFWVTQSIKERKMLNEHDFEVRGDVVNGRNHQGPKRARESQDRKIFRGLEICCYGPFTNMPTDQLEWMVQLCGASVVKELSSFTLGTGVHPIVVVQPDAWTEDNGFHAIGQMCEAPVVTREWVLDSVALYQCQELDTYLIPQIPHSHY

B1: Flag-hSTIL (SCL TAL1 Interrupting Locus protein) (protein, UniProt Q15468 1-1287)
chain: MEPIYPFARPQMNTRFPSSRMVPFHFPPSKCALWNPTPTGDFIYLHLSYYRNPKLVVTEKTIRLAYRHAKQNKKNSSCFLLGSLTADEDEEGVTLTVDRFDPGREVPECLEITPTASLPGDFLIPCKVHTQELCSREMIVHSVDDFSSALKALQCHICSKDSLDCGKLLSLRVHITSRESLDSVEFDLHWAAVTLANNFKCTPVKPIPIIPTALARNLSSNLNISQVQGTYKYGYLTMDETRKLLLLLESDPKVYSLPLVGIWLSGITHIYSPQVWACCLRYIFNSSVQERVFSESGNFIIVLYSMTHKEPEFYECFPCDGKIPDFRFQLLTSKETLHLFKNVEPPDKNPIRCELSAESQNAETEFFSKASKNFSIKRSSQKLSSGKMPIHDHDSGVEDEDFSPRPIPSPHPVSQKISKIQPSVPELSLVLDGNFIESNPLPTPLEMVNNENPPLINHLEHLKPLQPQLYDEKHSPEVEAGEPSLRGIPNQLNQDKPALLRHCKVRQPPAYKKGNPHTRNSIKPSSHNGPSHDIFEKLQTVSAGNVQNEEYPIRPSTLNSRQSSLAPQSQPHDFVFSPHNSGRPMELQIPTPPLPSYCSTNVCRCCQHHSHIQYSPLNSWQGANTVGSIQDVQSEALQKHSLFHPSGCPALYCNAFCSSSSPIALRPQGDMGSCSPHSNIEPSPVARPPSHMDLCNPQPCTVCMHTPKTESDNGMMGLSPDAYRFLTEQDRQLRLLQAQIQRLLEAQSLMPCSPKTTAVEDTVQAGRQMELVSVEAQSSPGLHMRKGVSIAVSTGASLFWNAAGEDQEPDSQMKQDDTKISSEDMNFSVDINNEVTSLPGSASSLKAVDIPSFEESNIAVEEEFNQPLSVSNSSLVVRKEPDVPVFFPSGQLAESVSMCLQTGPTGGASNNSETSEEPKIEHVMQPLLHQPSDNQKIYQDLLGQVNHLLNSSSKETEQPSTKAVIISHECTRTQNVYHTKKKTHHSRLVDKDCVLNATLKQLRSLGVKIDSPTKVKKNAHNVDHASVLACISPEAVISGLNCMSFANVGMSGLSPNGVDLSMEANAIALKYLNENQLSQLSVTRSNQNNCDPFSLLHINTDRSTVGLSLISPNNMSFATKKYMKRYGLLQSSDNSEDEEEPPDNADSKSEYLLNQNLRSIPEQLGGQKEPSKNDHEIINCSNCESVGTNADTPVLRNITNEVLQTKAKQQLTEKPAFLVKNLKPSPAVNLRTGKAEFTQHPEKENEGDITIFPESLQPSETLKQMNSMNSVGTFLDVKRLRQLPKLF
- binding: binds

Reference: article PMC5432342
